Screen size: about 1,800 compounds; fewer than 10 were called active.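 How the source made its calls: active means inhibition of granule release above a set limit; inactive means the rest.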 This is one part of the list.
Experiment: LAMP-1 surface externalization blockers in TALL-104 cells – cell-based, flow cytometry, validation set (AID 651664)
Details: TALL-104 LAMP-1 externalization, at 15.2 µM, stronger effect = higher value, stimulated with thapsigargin and PMA

inhibition, inactive:
c1ccc(N2CCCCC2)c(NC2=NCCC2)c1 1.2%
COC(=O)c1ccc(CN2CCN(Cc3ccc(C(=O)OC)o3)CC2)o1 2.2%
CCC(CC)NC(=O)c1cc2c(C)nn(Cc3ccccc3Cl)c2s1 -0.5%
CSc1nc2nc3c(c(=O)n2[nH]1)CCCC3 1.3%
CCOC(=O)c1c(C)nc2sc3c(=O)n(-c4ccc(C(C)=O)cc4)cnc3c2c1-c1ccc(Cl)cc1 7.6%
Cc1ccc(O)c(-c2cc(C(F)(F)C(F)F)[nH]n2)c1 2.3%
COc1ccc(-c2sc(NC(=O)c3ccc(C)cc3)nc2-c2ccc([N+](=O)[O-])cc2)cc1 0.2%
Cc1ccc(CCN2CC(C(=O)NCCCN3CCOCC3)CC2=O)cc1 (stereo not drawn) 3.8%
Nc1nc(CSCc2ccccc2)nc(N2CCOCC2)n1 -1.9%
CSC(=NCCCN1CCOCC1)NS(=O)(=O)c1cccs1 1.8%
Fc1ccccc1/C=N/Nc1nn[nH]n1 -1.6%
CCOC(=O)c1c(-c2cccc([N+](=O)[O-])c2)csc1NC(=O)C1CCCCC1 0.9%
COC(=O)c1nn(-c2ccc(-c3ccccc3)cc2)cc1O -2.5%
COC(=O)c1ccccc1Sc1c(/C=N/OCc2ccc(Cl)cc2)c(C(F)(F)F)nn1C -2.9%
CC(C)c1ccc(NC(=O)NC2CCN(CC(=O)Nc3cccc4ccccc34)CC2)cc1 -1.8%
COc1ccc(Oc2c(C)oc3c(CN4CCOCC4)c(O)ccc3c2=O)cc1 -1.6%
CCOC(=O)c1ccc(NS(C)(=O)=O)cc1 -3.4%
Cc1nn(C)c(C)c1NC(=O)Nc1cccc(C(F)(F)F)c1 2%
CCN(Cc1cc2cccc(C)c2[nH]c1=O)C(=O)c1ccccc1OC -1.7%
CCn1c(COc2ccc3c(c2)OCO3)nnc1SCC(=O)c1ccccc1 -1.1%
O=C(NCc1ccncc1)Nc1ccc(F)cc1 -2.7%
CCN=C1SC(CC(=O)Nc2sc(C)c(C)c2C(=O)OC)C(=O)N1CC (stereo not drawn) -1.5%
COC(=O)C1CCN(c2cc(=O)n(C3CCCCC3)c(=O)[nH]2)CC1 5.6%
CCN(CC)C(=O)CCC(=O)Nc1ccc(C(=O)OC)cc1 -0.8%
O=C1c2ccccc2NC(c2cnc3ccccc3n2)N1O (stereo not drawn) -0.6%
COc1ccc(-c2nnc(SCC(=O)NCCc3ccccc3)o2)cc1 -6%
CC(C)(C)N1CC(c2nc3ccccc3n2CCOc2ccccc2)CC1=O (stereo not drawn) -1.1%
CCOc1ccccc1N1CCN(S(=O)(=O)CC)CC1 2.8%
CCCN(C(=S)Nc1ccccc1)C1CCS(=O)(=O)C1 (stereo not drawn) -0.4%
c1ccc(-c2nnc(SCc3nnc(-c4cccs4)o3)o2)cc1 -1.5%
CCOC(=O)c1nnn(-c2nonc2N)c1COc1c(C=O)cccc1OC -1.7%
COc1cccc(C(=O)Nc2ccc(NC(=O)c3ccco3)cn2)c1 -1.1%
CC1CCN(S(=O)(=O)c2ccc(F)c(C(=O)O)c2)CC1 3.9%
Cc1c(NC2=NC3(CCCCC3)Cc3ccccc32)c(=O)n(-c2ccccc2)n1C 0.6%
N/C(=N\OC(=O)c1ccc(Cl)cc1Cl)c1ccc(Cl)cc1 5.2%
Fc1ccccc1COc1ccc(Br)cc1CNCc1ccncc1 -0.2%
Cc1cc(C)n(-c2ccc(N3CCOCC3)nn2)n1 13.4%
CC1SC(=NC(=O)C(C)N2C(=O)c3ccccc3C2=O)NC1=O (stereo not drawn) -1.3%
Cc1cc(Nc2ccccc2)n(-c2nc3ccccc3[nH]2)n1 11.6%
Cc1csc2nc(CSc3nc4ccccc4o3)c(Br)n12 -0.9%
C=C(C)COc1ccc(-c2n[nH]c(C)c2Oc2ccccc2OC)c(O)c1 -0.7%
Cc1nc(NCc2ccco2)c(C#N)c2c1COC(C)(C)C2 -1%
CCOc1ccccc1N1CC(C(=O)Nc2nccs2)CC1=O (stereo not drawn) -1.1%
O=c1c2ccccc2nc(/C=C/c2cccc([N+](=O)[O-])c2)n1CCCO -1.7%
CCCNC(=O)c1ccc(-c2nc3ccccc3s2)s1 2.9%
CCCSC1=N/C(=C\C=C\c2ccco2)C(=O)S1 -2.2%
CC(=O)Oc1ccc2c(c1)OC(c1ccccc1)CC21CC(C)(C)NC(=S)N1 (stereo not drawn) -0.7%
CCOC(=O)C(NC(=O)c1ccccc1)=C1C=C(C)OC(C)=C1 2.3%
N=C1C(c2nc(-c3ccc(Cl)cc3)cs2)=C(O)CN1CCCN1CCOCC1 1.7%
O=C(Nc1ccc(F)cc1)c1nsc(Cl)c1Cl 0.6%
COC(=O)C1=C(C(=O)c2ccccc2)C(c2cccs2)n2nnnc2N1 (stereo not drawn) 0%
CC(C)(C)C1CCc2[nH]c3ccccc3c(=O)c2C1 (stereo not drawn) 4.6%
CSc1ccc(S(=O)(=O)N2CCCC2)cc1 -1.2%
Cc1nnc(C)n1/N=C/c1ccccn1 -3.6%
O=C(Nc1ccc(NC(=O)c2ccco2)cc1)c1ccc2c(c1)OCO2 2.1%
O=C(O/N=C\c1ccc(N2CCCCC2)c([N+](=O)[O-])c1)c1cccc(C(F)(F)F)c1 -0.1%
COc1ccc(O)c(C(=O)c2cc(C#N)c(=O)n(CC3CCCO3)c2)c1 (stereo not drawn) -2.1%
O=[N+]([O-])/C=C/c1cn(Cc2ccccc2)c2ccccc12 -0.3%
O=c1c2ccccc2nc(SCc2cn3ccsc3n2)n1-c1ccccc1F 4.6%
COC(=O)C1=C(C)N=C2SCCC(=O)N2C1c1ccc(OC(=O)c2ccco2)cc1 (stereo not drawn) -1.3%
CCOC(=O)Nc1c(C(=O)OC)[nH]c2cc(OC)ccc12 0%
Cc1ccc(C)c2c3c([nH]c12)-c1nonc1CC3 -1%
Cc1cc(OCC(=O)NCc2nc(-c3ccccc3)no2)c(C)cc1Br 1.2%

Arranged by SMILES length (smallest number first): some entries from above.
inhibition, inactive:
Fc1ccccc1/C=N/Nc1nn[nH]n1 -1.6%
CCCSC1=N/C(=C\C=C\c2ccco2)C(=O)S1 -2.2%
CCCN(C(=S)Nc1ccccc1)C1CCS(=O)(=O)C1 (stereo not drawn) -0.4%
CC(C)(C)N1CC(c2nc3ccccc3n2CCOc2ccccc2)CC1=O (stereo not drawn) -1.1%
O=c1c2ccccc2nc(/C=C/c2cccc([N+](=O)[O-])c2)n1CCCO -1.7%

Reference: PubChem BioAssay AID651664 (NMMLSC, 2012)
